Weaker means in comparison with the reference protein, sequence or condition of that experiment. For some of these results: Construct, isoform or probe ends are uncertain for at least one entry.
Key:
hStn1 (Homo sapiens) = hStn1 (Homo sapiens) (UniProt Q9H668); assay: fluorescence polarization; details: FP: 100 mM NaCl, 5 mM MgCl2, 1 mM DTT, 5% glycerol, 1 mg/mL BSA, 2.5 nM 6-FAM DNA, room temperature, pH not stated, recombinant protein, residues 1-368, single-stranded DNA
hTen1 (Homo sapiens) = hTen1 (Homo sapiens) (UniProt Q86WV5); assay: fluorescence polarization; details: slight shift only at >=15 uM protein, FP: 100 mM NaCl, 5 mM MgCl2, 1 mM DTT, 5% glycerol, 1 mg/mL BSA, 2.5 nM 6-FAM DNA, room temperature, pH not stated, recombinant protein, residues 1-123, single-stranded DNA

Sequences of proteins named here, by UniProt entry; tags and fusion partners are left off. A change or cut given only in a name is not applied to a line headed by its entry.
UniProt Q9H668: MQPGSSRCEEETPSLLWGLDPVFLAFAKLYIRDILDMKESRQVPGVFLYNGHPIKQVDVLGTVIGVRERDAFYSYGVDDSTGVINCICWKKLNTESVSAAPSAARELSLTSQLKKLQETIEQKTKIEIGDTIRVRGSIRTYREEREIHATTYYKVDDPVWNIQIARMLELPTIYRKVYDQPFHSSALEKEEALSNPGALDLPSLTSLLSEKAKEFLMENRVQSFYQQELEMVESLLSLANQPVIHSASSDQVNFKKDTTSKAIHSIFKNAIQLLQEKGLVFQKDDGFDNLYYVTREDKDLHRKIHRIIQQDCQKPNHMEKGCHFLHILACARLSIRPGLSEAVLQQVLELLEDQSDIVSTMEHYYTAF
UniProt Q86WV5: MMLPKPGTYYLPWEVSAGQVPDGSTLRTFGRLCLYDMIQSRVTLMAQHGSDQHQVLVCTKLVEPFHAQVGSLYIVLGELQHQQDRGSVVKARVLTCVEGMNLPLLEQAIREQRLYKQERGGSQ

TTAGGGTT [tel8]: binds more weakly (hStn1 (Homo sapiens); too weak to determine Kd).
TTAGGGTTAGGG [tel12]: binds more weakly (hTen1 (Homo sapiens); best visible probe).
TTAGGGTTAGGGTTAGGG [tel18]: binds more weakly (hTen1 (Homo sapiens)).
In the case of TTAGGGTTAGGGTTAGGGTTAGGGTTAGGG [tel30], the Kd (hStn1 (Homo sapiens)) is reported as 200 nM.

Reference: PMC3691326
